Assay results: patent US20110176998A1, “IMAGING AND THERAPY OF VIRUS-ASSOCIATED TUMORS” (THE JOHNS HOPKINS UNIVERSITY, priority 2007, published 2011)
For some of these results: For at least one compound, name, drawing or mass did not settle the structure. Some results were stated once for a whole list of compounds, not compound by compound.

What was measured:
EBV = EBV lytic induction; cited from earlier work
[1] = test system: recombinant EBV encoding GFP (BX-1) in AKATA-BX1 cells; experiment: GFP whole virus assay in AKATA-BX1 cells; details: library screen at 10 uM; picked after day 10
Zta promoter = assay type: cell-based, Epstein-Barr virus; details: AGS cells; therapeutic serum concentration

In the case of CCCC(=O)[O-].[Na+] [Sodium butyrate], the effective concentration reported (EBV) is given as 0.5 to 2 mM.

With CCC(C)(C)C(=O)O[C@H]1C[C@@H](C)C=C2C=C[C@H](C)[C@H](CC[C@@H]3C[C@@H](O)CC(=O)O3)[C@H]21 [simvastatin] the “suppression hits in GFP whole virus assay” value [1] was “suppression hits”.

With Cc1oncc1C(=O)Nc1ccc(C(F)(F)F)cc1 [Leflunomide, N-(4′-trifluoromethylphenyl)-5-methylisoxazole-4-carboxamide] the “induction of BZLF promoter” value (Zta promoter) was “up to 15 fold”.

In the case of COc1ccc(C=CC(=O)Nc2ccccc2C(=O)O)cc1OC [Tranilast, N-(3,4-dimethoxycinnamoyl)anthranilic acid], the “induction of BZLF promoter” value (Zta promoter) is reported as “up to 15 fold”.
